Source: the supplement of paper PMC4604168 (melanoma cell lines)
This is one part of the list. Many values rest on one well or one pass, so single values are uncertain.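 Imaging used 1,536-well plates; nuclei positive for cleaved PARP by antibody were divided by total DNA-stained nuclei to yield the apoptosis fraction. Doses for screening kept most cells viable, and cell lines differ markedly in resting and induced cleaved-PARP levels.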

Experiments:
Assay in all cases: cleaved PARP positive nuclei fraction relative to DMSO control; melanoma cells; higher = more apoptosis
Conditions in all cases: library dose: low library concentration; 72 h
[1] = test system: COLO792
[2] = test system: COLO800
[3] = test system: COLO829
[4] = test system: G361
[5] = test system: IPC-298
[6] = test system: IST-MEL1
[7] = test system: LB2518-MEL
[8] = test system: LOXIMVI
[9] = test system: MEL-HO

SMILES | cleaved PARP positive nuclei fraction [1] [%] | cleaved PARP positive nuclei fraction [2] [%] | cleaved PARP positive nuclei fraction [3] [%] | cleaved PARP positive nuclei fraction [4] [%] | cleaved PARP positive nuclei fraction [5] [%] | cleaved PARP positive nuclei fraction [6] [%] | cleaved PARP positive nuclei fraction [7] [%] | cleaved PARP positive nuclei fraction [8] [%] | cleaved PARP positive nuclei fraction [9] [%]
NC1(c2ccc(-c3nc4ccn5c(=O)[nH]nc5c4cc3-c3ccccc3)cc2)CCC1 + Cc1cc(SCc2sc(-c3ccc(C(F)(F)F)c(F)c3)nc2C)ccc1OCC(=O)O [GW0742] (first compound 0.4 µM, partner dose 2 µM) | 124 | 36.9 | 81.9 | 130 | 94.2 | 166 | 78.9 | 39.6 | –
C[C@]12O[C@H](C[C@]1(O)CO)n1c3ccccc3c3c4c(c5c6ccccc6n2c5c31)CNC4=O [Lestaurtinib] + O=C(Oc1ccc([N+](=O)[O-])cc1)N1CCC(C(O)(c2ccc3c(c2)OCO3)c2ccc3c(c2)OCO3)CC1 [JZL184] (first compound 0.004 µM, partner dose 1 µM) | 129 | 51.5 | 105 | 109 | 199 | 107 | 164 | 109 | –
CCN(CC)CCNC(=O)c1c(C)[nH]c(/C=C2\C(=O)Nc3ccc(F)cc32)c1C [sunitinib] + Cc1cc(SCc2sc(-c3ccc(C(F)(F)F)c(F)c3)nc2C)ccc1OCC(=O)O [GW0742] (first compound 0.4 µM, partner dose 2 µM) | 51.3 | 77.5 | 36.4 | 74.6 | 64.2 | 127 | 61.5 | 56.2 | –
N.N.[Cl][Pt][Cl] [cisplatin] + Cn1cc(/C=C2\C(=O)Nc3cccnc32)c2ccccc21 [GW441756] (first compound 1.6 µM, partner dose 0.4 µM) | 91.7 | 85.8 | 224 | 67.4 | 46.5 | 344 | 412 | 198 | –
Cc1cn(-c2cc(NC(=O)c3ccc(C)c(Nc4nccc(-c5cccnc5)n4)c3)cc(C(F)(F)F)c2)cn1 [nilotinib] + Cc1cc(SCc2sc(-c3ccc(C(F)(F)F)c(F)c3)nc2C)ccc1OCC(=O)O [GW0742] (first compound 0.2 µM, partner dose 2 µM) | 116 | 81.7 | 219 | 165 | 95.1 | 47.4 | 130 | 157 | –
CC[C@]1(O)C[C@H]2CN(CCc3c([nH]c4ccccc34)[C@@](C(=O)OC)(c3cc4c(cc3OC)N(C=O)[C@H]3[C@@](O)(C(=O)OC)[C@H](OC(C)=O)[C@]5(CC)C=CCN6CC[C@]43[C@@H]65)C2)C1 [vincristine] + O=C(Oc1ccc([N+](=O)[O-])cc1)N1CCC(C(O)(c2ccc3c(c2)OCO3)c2ccc3c(c2)OCO3)CC1 [JZL184] (first compound 0.0001 µM, partner dose 1 µM) | 206 | 112 | 61.5 | 121 | 93 | 81.2 | 32.4 | 40.7 | –
Cc1ccc(Nc2nccc(N(C)c3ccc4c(C)n(C)nc4c3)n2)cc1S(N)(=O)=O [Pazopanib] + Cc1cc(SCc2sc(-c3ccc(C(F)(F)F)c(F)c3)nc2C)ccc1OCC(=O)O [GW0742] (first compound 0.4 µM, partner dose 2 µM) | 52.4 | 36.5 | 85.6 | 98.4 | 55 | 58.2 | 34.7 | 108 | –
Cn1cc(C2=C(c3cn(C4CCN(Cc5ccccn5)CC4)c4ccccc34)C(=O)NC2=O)c2ccccc21 [Enzastaurin] + C=CCn1c(=O)c2cnc(Nc3ccc(N4CCN(C)CC4)cc3)nc2n1-c1cccc(C(C)(C)O)n1 [MK1775] (first compound 0.8 µM, partner dose 0.02 µM) | 14.2 | 54.7 | 67.8 | 104 | 19.8 | 96.6 | 46.5 | 103 | 65
O=c1[nH]nc(Sc2ncc([N+](=O)[O-])s2)n1-c1ccc2c(c1)OCCO2 + Cc1cc(SCc2sc(-c3ccc(C(F)(F)F)c(F)c3)nc2C)ccc1OCC(=O)O [GW0742] (first compound 0.2 µM, partner dose 2 µM) | 102 | 65.4 | 35.1 | 66.3 | 135 | 62.1 | 50.4 | 34.2 | –
C[C@]12O[C@H](C[C@]1(O)CO)n1c3ccccc3c3c4c(c5c6ccccc6n2c5c31)CNC4=O [Lestaurtinib] + Cn1cc(/C=C2\C(=O)Nc3cccnc32)c2ccccc21 [GW441756] (first compound 0.004 µM, partner dose 0.4 µM) | 86.6 | 134 | 40.6 | 69.6 | 95.8 | 118 | 68.4 | 90.9 | –
C=CCNC1=C2C[C@@H](C)C[C@H](OC)[C@H](O)[C@@H](C)/C=C(\C)[C@H](OC(N)=O)[C@@H](OC)/C=C\C=C(/C)C(=O)NC(=CC1=O)C2=O [Tanespimycin] + C/C(O)=C(\C#N)C(=O)Nc1cc(Br)ccc1Br [LFM-A13] (first compound 0.002 µM, partner dose 2 µM) | 67.7 | 133 | 63.5 | 102 | 88.4 | 19.4 | 45.6 | 40.8 | –
